Reference: patent publication US20150218261A1
No constants are given. Whether binding was seen depends on the method and setting.

Legend:
[1] = target: human platelet factor 4 (PF-4) in HPF4-spiked human plasma (human); test: sandwich-ELISA: antibody coated on the plate, dilution series of HPF4-spiked human plasma, bound PF-4 detected (OD450nm)
[2] = target: human platelet factor 4 (PF-4) in HPF4-spiked human plasma (human); test: aligned sandwich-ELISA: dilution series of antibody captured by immobilized anti-IgG, then 1:10 HPF4-spiked human plasma, bound PF-4 detected (OD450nm)

B1: humanized monoclonal anti-Aβ antibody 4D10hum#2 (antibody, human IgG1, kappa, V domains shown)
VH: EVQLQESGPGLVKPSETLSLTCTVSGFSLSSYGVHWVRQPPGKGLEWLGVIWRGGRIDYNAAFMSRLTISKDTSKSQVSLKLSSVTAADTAVYYCARNSDVWGQGTTVTVSS
VL: DVVMTQTPLSLPVTPGQPASISCKSSQSLLDIDGKTYLNWLLQKPGQSPQRLIYLVSKLDSGVPDRFSGSGSGTDFTLKISRVEAEDVGVYYCWQGTHFPYTFGQGTKLEIKR
binding [1]: no binding (tested: plasma dilution 1:3.16) | binding [2]: no binding (tested: 10000 ng/mL)
